Test results: paper PMC4520715
No constants are given. Whether binding was seen depends on the method and setting. Binding seen in cells or lysates may run through a third protein. Binding calls can cover weak binding; strength is not graded here. Where a sequence is shown, tags or fusion partners need not be part of it.

Biological target: T1, Rv2911-V5 (Mycobacterium tuberculosis) (UniProt I6Y204)
T1 sequence: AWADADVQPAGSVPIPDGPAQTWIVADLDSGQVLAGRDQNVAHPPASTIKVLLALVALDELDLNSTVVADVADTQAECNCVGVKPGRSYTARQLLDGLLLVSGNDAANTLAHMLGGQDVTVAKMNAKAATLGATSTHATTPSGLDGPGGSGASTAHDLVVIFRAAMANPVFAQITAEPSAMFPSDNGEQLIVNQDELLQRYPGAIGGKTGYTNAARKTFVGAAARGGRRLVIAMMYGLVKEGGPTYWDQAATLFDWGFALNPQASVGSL
Assay: co-IP

## myc-UBQLN1-ΔUBA (human) (domain or fragment)
  binding: binds
